Measurements taken from PubChem BioAssay AID720519 (National Center for Advancing Translational Sciences (NCATS), 2013).
Inconclusive means that the source gave no clear call. Such entries were picked first, then a sample of the others. A potency beside an inconclusive call is a rough fit, not a confirmed value. Active and inactive are the calls of the source. The call rests on the fitted dose curve; in most records, active means well fitted activation curve with a large enough effect; inconclusive means small, poorly fitted or top-dose-only effect; inactive means flat fitted curve, though single readings scatter.

Assay: qHTS for Inhibitors of Cell Surface uPA Generation: Confirmatory Assay for Cherry-picked Compounds
Outline: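 RAW 264.7 cells at 4000/well, incubated overnight, then treated with compounds. After 24 h at 37 C, viability was read by ATPlite luminescence. An increase in signal indicates blocked uPA-dependent LF entry.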
Potency means the concentration at half of the fitted maximal effect.

Compound | Potency
COc1cc(N/C(N)=N/c2nc(C)cc(C)n2)cc(OC)c1 | inactive
CC(=O)Nc1c2c(nn1-c1cccc(C)c1)CSC2 | inactive
Cc1ccccc1N1C(=O)C(Cc2ccc(F)cc2)S/C1=C(\C#N)C(N)=O (stereo not given) | inconclusive: 20.7 µM [activator, full curve]
CCOC(=O)C1CCN(CC(=O)Nc2cc(C)nn2-c2nc3ccccc3s2)CC1 | inconclusive: 29.3 µM [activator, full curve]
COc1ccc(Nc2cc(C)c3ccc(O)cc3n2)cc1 | inconclusive: 14.7 µM [activator, partial curve]
CC(C)C1Oc2ccccc2N(CC(=O)NC2CCCCC2)C1=O (stereo not given) | active: 32.9 µM
COc1ccc(-n2nc(C(=O)Nc3cc(OC)c(OC)c(OC)c3)c3ccccc3c2=O)c(OC)c1 | inactive
Cc1nc2ccccc2c2oc(C(=O)Nc3ccc4c(c3)OCCO4)cc12 | inconclusive: 14.7 µM [activator, partial curve]
Cc1ccc(Nc2cc(C)c3ccc(O)cc3n2)cc1C | active: 6.56 µM
Fc1ccc(NC(=S)N2CCCC(c3ccccc3)=N2)cc1 | inconclusive: 13.1 µM [activator, full curve]
CC(C)Cn1cnc2c(N)nc3ccccc3c21 | inactive
CCN(CC)c1ccc(-c2c(C#N)c(N)nc(OC)c2C#N)cc1 | inconclusive: 9.27 µM [activator, partial curve]
O=c1[nH]c(SCc2cccc(Cl)c2)nc2ccccc12 | inactive
COc1cccc(NC(=O)c2nnn(CC(=O)Nc3cc(C)cc(C)c3)c2N)c1 | inactive
O=C(CNS(=O)(=O)c1ccc(F)cc1)Nc1ccccc1 | inactive

Taken from the results shown for reference:
Compound | Potency
Cc1nc2ccccc2c2oc(C(=O)Nc3ccc4c(c3)OCCO4)cc12 | inconclusive: 14.7 µM [activator, partial curve]
Cc1ccc(Nc2cc(C)c3ccc(O)cc3n2)cc1C | active: 6.56 µM
